# For some of these results: Expression values are those of the mRNA of the gene that encodes the peptide; a gene is named only where it was looked up.
# Columns and labels:
# [1] = test system: source genes (mRNA); test: Expression profiling of source genes by in-house RNASeq of tumor and normal tissues (Table 18, FIG. 2); set-up: species or system human; key: very highly over-expressed in tumors compared to a panel of normal tissues (+++); highly over-expressed in tumors compared to a panel of normal tissues (++); over-expressed in tumors compared to a panel of normal tissues (+); details: source gene of peptide; for Expression score BRCA: BRCA tumors vs panel of normal tissues; for Expression score OSCAR: esophageal cancer incl. gastric-esophageal junction (N = 11) vs panel of normal tissues; for Expression score GBC_CCC: gallbladder adenocarcinoma and cholangiocarcinoma (N = 3) vs panel of normal tissues; for Expression score NSCLC: non-small cell lung cancer (N = 11) vs panel of normal tissues; for Expression score PC: pancreatic cancer (N = 26) vs panel of normal tissues
# [2] = test system: HLA-A*02; test: Identification and relative LC-MS quantitation of HLA-A*02-presented tumor-associated peptides on tissue samples (presentation profiles, Tables 13A, 13B, 15, FIG. 1); set-up: species or system human; key to Presentation score NHL / Presentation score CLL / Presentation score BRCA / Presentation score AML / Presentation score GB / Presentation score NSCLC / Presentation score GBC_CCC / Presentation score UEC / Presentation score MEL / Presentation score OSCAR / Presentation score GC / Presentation score UBC / Presentation score OC / Presentation score RCC / Presentation score CRC / Presentation score PCA / Presentation score HCC / Presentation score PC / Presentation score SCLC: specifically presented on tumors (++++); very highly over-presented on tumors compared to a panel of normal tissues (+++); highly over-presented on tumors compared to a panel of normal tissues (++); over-presented on tumors compared to a panel of normal tissues (+); details: for Presentation score NSCLC: non-small cell lung cancer (N = 90) vs panel of normal tissues (N = 262); for Peptide Presentation on cancer entities: HLA-A*02-binding tumor-associated peptides
# [3] = test system: source genes (mRNA); test: Gene and exon expression of source genes, TCGA tumor samples compared with normal tissue samples (Lonsdale, 2013) (Table 17); set-up: species or system human; details: for Target coverage: over-expression category of source gene, BLCA: Bladder urothelial carcinoma (N = 408); for Target coverage: over-expression category of source gene, BRCA: Breast cancer (N = 1104), cutoff more than 2-fold above highest 75% percentile of high and medium risk normal tissue samples; for Target coverage: over-expression category of source gene, ESCA: Esophageal cancer (N = 185); for Target coverage: over-expression category of source gene, GBM: Glioblastoma multiforme (N = 169); for Target coverage: over-expression category of source gene, LUAD: Lung adenocarcinoma (N = 517); for Target coverage: over-expression category of source gene, LUSC: Lung squamous cell carcinoma (N = 503); for Target coverage: over-expression category of source gene, OV: Ovarian serous cystadenocarcinoma (N = 309); for Target coverage: over-expression category of source gene, SKCM: Skin cutaneous melanoma (N = 473); for Target coverage: over-expression category of source gene, STAD: Stomach adenocarcinoma (N = 415)
# [4] = Table 13A, cancer entities on which the peptide was found presented
# [5] = Table 13B, presentation on additional cancer entities
# [6] = cutoff more than 2-fold above highest 75% percentile of normal tissue samples
substance,measurement,setting,value
14: peptide found in BRIP1 (gene looked up) (ILAKDLFEI; listed as Homo sapiens) [compound 14],Expression score BRCA,[1],+++
same,Expression score AML,[1]; acute myeloid leukemia (N = 11) vs panel of normal tissues,+
same,Expression score CRC,[1]; colorectal cancer (N = 20) vs panel of normal tissues,++
same,Expression score OSCAR,[1],++
same,Expression score GBC_CCC,[1],+
same,Expression score GC,[1]; gastric cancer (N = 11) vs panel of normal tissues,+
same,Expression score GB,[1]; glioblastoma (N = 24) vs panel of normal tissues,++
same,Expression score HCC,[1]; hepatocellular carcinoma (N = 15) vs panel of normal tissues,+
same,Expression score NHL,[1]; non-Hodgkin lymphoma (N = 10) vs panel of normal tissues,++
same,Expression score NSCLC,[1],++
same,Expression score OC,[1]; ovarian cancer (N = 12) vs panel of normal tissues,+
same,Expression score PC,[1],+
same,Expression score SCLC,[1]; small cell lung cancer (N = 10) vs panel of normal tissues,+++
same,Expression score UBC,[1]; urinary bladder cancer (N = 10) vs panel of normal tissues,+
same,Expression score UEC,[1]; uterine cancer (N = 10) vs panel of normal tissues,+
same,Presentation score AML,"[2]; HLA-A*02 peptides, acute myeloid leukemia (N = 18) vs panel of normal tissues (N = 262)",++++
same,Presentation score OSCAR,"[2]; HLA-A*02 peptides, esophageal cancer, including cancer of the gastric-esophageal junction (N = 17) vs panel of normal tissues (N = 262)",++++
same,Presentation score HCC,"[2]; HLA-A*02 peptides, hepatocellular carcinoma (N = 16) vs panel of normal tissues (N = 262)",++++
same,Presentation score NHL,"[2]; HLA-A*02 peptides, non-Hodgkin lymphoma (N = 18) vs panel of normal tissues (N = 262)",++++
same,Presentation score NSCLC,[2]; HLA-A*02 peptides,++++
same,Presentation score UBC,"[2]; HLA-A*02 peptides, urinary bladder cancer (N = 16) vs panel of normal tissues (N = 262)",++++
same,Peptide Presentation on cancer entities,[2]; [4],"NSCLC, HCC, OSCAR, UBC, AML, NHL"
same,Peptide Presentation on cancer entities,[2]; [5],SCLC
same,"Target coverage: over-expression category of source gene, LAML","[3]; Acute Myeloid Leukemia (N = 173), cutoff more than 2-fold above highest 75% percentile of normal tissue samples",A (>=50% of tumors above the cutoff)
same,"Target coverage: over-expression category of source gene, BLCA",[3]; [6],"B (>= 20% of tumors above the cutoff, but <50%)"
same,"Target coverage: over-expression category of source gene, BRCA",[3],"B (>= 20% of tumors above the cutoff, but <50%)"
same,"Target coverage: over-expression category of source gene, READ","[3]; Colon and rectal adenocarcinoma (N = 167), cutoff more than 2-fold above highest 75% percentile of normal tissue samples","B (>= 20% of tumors above the cutoff, but <50%)"
same,"Target coverage: over-expression category of source gene, COAD","[3]; Colon and rectal adenocarcinoma (N = 462), cutoff more than 2-fold above highest 75% percentile of normal tissue samples","B (>= 20% of tumors above the cutoff, but <50%)"
same,"Target coverage: over-expression category of source gene, ESCA",[3]; [6],"B (>= 20% of tumors above the cutoff, but <50%)"
same,"Target coverage: over-expression category of source gene, GBM",[3]; [6],"C (>=5% of tumors above the cutoff, but <20%)"
same,"Target coverage: over-expression category of source gene, LIHC","[3]; Liver hepatocellular carcinoma (N = 374), cutoff more than 2-fold above highest 75% percentile of normal tissue samples","C (>=5% of tumors above the cutoff, but <20%)"
same,"Target coverage: over-expression category of source gene, LGG","[3]; Lower grade glioma (N = 534), cutoff more than 2-fold above highest 75% percentile of normal tissue samples","C (>=5% of tumors above the cutoff, but <20%)"
same,"Target coverage: over-expression category of source gene, LUAD",[3]; [6],"C (>=5% of tumors above the cutoff, but <20%)"
same,"Target coverage: over-expression category of source gene, LUSC",[3]; [6],"B (>= 20% of tumors above the cutoff, but <50%)"
same,"Target coverage: over-expression category of source gene, DLBC","[3]; Lymphoid neoplasm diffuse large B-cell lymphoma (N = 48), cutoff more than 2-fold above highest 75% percentile of normal tissue samples","C (>=5% of tumors above the cutoff, but <20%)"
same,"Target coverage: over-expression category of source gene, OV",[3]; [6],"C (>=5% of tumors above the cutoff, but <20%)"
same,"Target coverage: over-expression category of source gene, SKCM",[3]; [6],"B (>= 20% of tumors above the cutoff, but <50%)"
same,"Target coverage: over-expression category of source gene, STAD",[3]; [6],"C (>=5% of tumors above the cutoff, but <20%)"
same,"Target coverage: over-expression category of source gene, UCEC","[3]; Uterine corpus endometrial carcinoma (N = 546), cutoff more than 2-fold above highest 75% percentile of normal tissue samples","C (>=5% of tumors above the cutoff, but <20%)"
15: peptide found in TLR6 (gene looked up) (YLDLSHNQL; listed as Homo sapiens) [compound 15],Expression score BRCA,[1],+
same,Expression score CLL,[1]; chronic lymphocytic leukemia (N = 10) vs panel of normal tissues,+
same,Expression score OSCAR,[1],+
same,Expression score GBC_CCC,[1],+
same,Expression score NSCLC,[1],+
same,Expression score PC,[1],+
same,Presentation score BRCA,"[2]; HLA-A*02 peptides, breast cancer (N = 17) vs panel of normal tissues (N = 262)",++++
same,Presentation score CLL,"[2]; HLA-A*02 peptides, chronic lymphocytic leukemia (N = 17) vs panel of normal tissues (N = 262)",++++
same,Presentation score GBC_CCC,"[2]; HLA-A*02 peptides, gallbladder adenocarcinoma and cholangiocarcinoma (N = 6) vs panel of normal tissues (N = 262)",++++
same,Presentation score NSCLC,[2]; HLA-A*02 peptides,++++
same,Peptide Presentation on cancer entities,[2]; [4],"NSCLC, CLL, BRCA, GBC_CCC"
same,Peptide Presentation on cancer entities,[2]; [5],"OSCAR, GBC_CCC, HNSCC"
same,"Target coverage: over-expression category of source gene, BLCA",[3]; [6],"C (>=5% of tumors above the cutoff, but <20%)"
same,"Target coverage: over-expression category of source gene, BRCA",[3],"C (>=5% of tumors above the cutoff, but <20%)"
same,"Target coverage: over-expression category of source gene, ESCA",[3]; [6],"C (>=5% of tumors above the cutoff, but <20%)"
same,"Target coverage: over-expression category of source gene, GBM",[3]; [6],"C (>=5% of tumors above the cutoff, but <20%)"
same,"Target coverage: over-expression category of source gene, LUAD",[3]; [6],"C (>=5% of tumors above the cutoff, but <20%)"
same,"Target coverage: over-expression category of source gene, LUSC",[3]; [6],"C (>=5% of tumors above the cutoff, but <20%)"
same,"Target coverage: over-expression category of source gene, OV",[3]; [6],"B (>= 20% of tumors above the cutoff, but <50%)"
same,"Target coverage: over-expression category of source gene, PAAD","[3]; Pancreatic ductal adenocarcinoma (N = 179), cutoff more than 2-fold above highest 75% percentile of normal tissue samples","C (>=5% of tumors above the cutoff, but <20%)"
same,"Target coverage: over-expression category of source gene, SKCM",[3]; [6],"C (>=5% of tumors above the cutoff, but <20%)"
same,"Target coverage: over-expression category of source gene, STAD",[3]; [6],"C (>=5% of tumors above the cutoff, but <20%)"
